The source of these data is patent US20160058735A1, “METHODS OF TREATING HYPERHIDROSIS” (Dermira, Inc., priority 2014, published 2016).

Each structure is given as a SMILES string.

The subject of data set [1] is patients with severe primary axillary hyperhidrosis. The data set is described as follows: Study DRM04-HH01 (Phase 2b): HDSS improvement. The class given is in vivo, human. As to conditions: 1-4%, four weeks. How it is done: In Study DRM04-HH01, 198 patients with severe primary axillary hyperhidrosis were randomized to receive a topical formulation containing one of four concentrations of the reference agent (1%, 2%, 3% or 4%) or vehicle only. As in the Phase 2a clinical trial, patients were instructed to apply the study product once daily for four weeks using wipes saturated with either the topical formulation of the reference agent or vehicle only, and efficacy was evaluated based on axillary sweat production and the HDSS. Assessments were conducted approximately weekly during the four-week treatment period and the two-week period after the end of this treatment period. All 198 patients enrolled in the clinical trial rated the severity of their disease as a three or a four on the four-point HDSS prior to the start of treatment. […]
The two primary efficacy endpoints evaluated in this trial were (1) the proportion of patients achieving an improvement of at least two points from baseline in HDSS score and (2) the average absolute change from baseline in sweat production, each as measured at the end of the four-week treatment period. For the purpose of the primary endpoint pertaining to sweat production, sweat production was assessed in each patient as the average of the amounts of sweat produced in each axilla during a five-minute period.

Data set [2] has the same test system. Particulars: 1-4% cohorts. How it is done: Assessments were conducted approximately weekly during the four-week treatment period and the two-week period after the end of this treatment period. […] Trial inclusion criteria required that prior to the start of treatment, all patients produce at least 50 mg of sweat in each axilla over a five-minute period.

For `C[N+]1(C)CCC(OC(=O)C(O)(c2ccccc2)C2CCCC2)C1.[Br-]` (stereo not drawn) [reference agent, threo-glycopyrronium bromide], the “both primary efficacy endpoints (HDSS improvement, sweat production) relative to vehicle” value in data set [1] was “dose-dependent and, at certain doses, statistically significant improvements relative to vehicle”. Further, the “frequency of dry mouth, dry skin and blurred vision by concentration” value in data set [2] is “generally observed more frequently in patients who received higher concentrations”.
